Measurements from US6881409B2, “Compositions and methods for promoting nerve regeneration” (Oregon Health and Science University, priority 1997, dated 2005).
At least one structure is not confirmed: it was looked up by name or label, or the drawing left a doubt.

Columns and labels:
[1] = tested on: sciatic nerve crush lesion; settings: rat, following a sciatic nerve crush lesion; Gold et al.; cited from earlier work
[2] = tested on: rat pheochromocytoma cell line; settings: Lyons et al. 1994; cited from earlier work
[3] = tested on: SH-SY5Y human neuroblastoma cells; assay: Neurite outgrowth (neuritic process length) of NGF-differentiated SH-SY5Y cells; format: cell-based
Description: Cell cultures. SH-SY5Y human neuroblastoma cells were maintained in DMEM medium (GIBCO) supplemented with 10% fetal calf serum (SIGMA), 50 IU/mL penicillin, and […] streptomycin (GIBCO) at 37° C. in 7% CO^2. Cells were plated in six-well plates at 1×10^6 cells/well and treated with […] aphidicolin (SIGMA). At five days, cells were washed, treated with nerve growth factor (NGF) (Boehringer Mannheim, Indianapolis, Ind.) at 10 ng/mL (to induce process outgrowth) in the presence or absence of FK506 (1 and 10 nM) (Calbiochem-Novabiochem Int'l., La Jolla, Calif.) and/or geldanamycin (0.1, 1, and 10 nM) (Calbiochem-Novabiochem, La Jolla, Calif.). Media was changed at 96 hours and replaced with fresh media with the compounds (NGF plus FK506 and/or geldanamycin) for an additional 72 hours (total time, 168 hours). The top 50% of axonal lengths were selected for statistical analysis. All experiments were run in duplicate wells and repeated at least twice for reproducibility.
Light morphometry of neurite lengths. […] Neurite lengths were measured on photographic prints using a Houston Instrument HI-PAD digitizing tablet connected to an IBM XT computer with appropriate software (Bioquant IV, R&M Biometrics, Nashville, Tenn.); only those processes greater than two times the cell body length were measured. […]

SMILES	functional recovery and axonal regeneration [1]	neuritic outgrowth [2]	effect on length of the processes ([3]; first set, geldanamycin 1 nM in the presence of NGF, compared with NGF alone)	nerve growth stimulation ([3]; second set, geldanamycin 0.1 nM in the presence of NGF)
C=CC[C@@H]1/C=C(\C)C[C@H](C)C[C@H](OC)[C@H]2O[C@@](O)(C(=O)C(=O)N3CCCC[C@H]3C(=O)O[C@H](/C(C)=C/[C@@H]3CC[C@@H](O)[C@H](OC)C3)[C@H](C)[C@@H](O)CC1=O)[C@H](C)C[C@@H]2OC [FK506]	speeds functional recovery and axonal regeneration	stimulate neuritic outgrowth		
COC1=C2C[C@@H](C)C[C@H](OC)[C@H](O)[C@@H](C)/C=C(\C)[C@H](OC(N)=O)[C@@H](OC)/C=C\C=C(/C)C(=O)NC(=CC1=O)C2=O [Geldanamycin, geldanamycin]			even greater increase in the length of the processes	Nerve growth stimulation was observed
